## Screening data, single-dose tests

Mtb glucose medium: 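Phenotypic screen: M. tuberculosis growth, glucose 7H9 medium, 3 days; the read-out is not stated. Concentration: 50 µM. The record gives no direction; compounds that gave an IC50 in retests scored well above the rest, so higher reads as more growth inhibition. Of about 69,000 compounds tested this way, about 760 (1.1%) reached 50% or more in at least one test.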
Mtb cholesterol medium: 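Growth of Mycobacterium tuberculosis over 4 days (cholesterol / DPPC medium with tyloxapol); the read-out is not stated. Concentration: 50 µM. Higher reads as more growth inhibition (inferred: compounds with an IC50 in retests scored well above the rest). Of about 69,000 compounds tested this way, about 370 (0.54%) reached 50% or more in at least one test.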

Each number is a percent effect as filed. The record does not define 0% and 100%; most values in the screen are far below 50% and negative numbers occur (in some assays of this library far below -100). Compounds were drawn at random from those tested, without regard to their results. Two or more numbers in one place are separate tests of the same structure; such repeats can differ widely.

structure,Mtb glucose medium,Mtb cholesterol medium
CN(C)C(=O)c1cccc(NC(=O)N2CCCC(C(F)(F)F)C2)c1 (stereo unspecified),3.72,-10.6
[H][C@]12CC[C@]([H])(CN(C(=O)c3ccc(C)s3)C1)N(CC1CCC1)C2,-0.3676,-32.04
Cc1cccc(NS(=O)(=O)c2cc(C(=O)O)oc2C)c1,-9.176,-20.04
CNC(=O)c1ccccc1-c1ccc(S(C)(=O)=O)cc1,-2.852,2.862
O=C(O)C(F)(F)F.[H][C@]12CC[C@@]3(N=C(CC)N(C)C3=O)[C@@]1([H])CN(Cc1ccccc1C)C2,36.86,7.81
Nc1ccc(C(=O)N2CCCC(c3nccn3Cc3cscn3)C2)cn1 (stereo unspecified),27.04,-9.198 and 1.043
CCC(C(=O)N(C)C)n1ccc2ncccc2c1=O (stereo unspecified),-1.598,-3.756
Cc1ccc(NC2CCN(C(=O)c3cccc(F)c3F)CC2)nn1,-26.59,4.926
COCCNC(=O)NCc1ccc(-n2ccc(C(F)(F)F)n2)cc1,19.49,3.355
COc1ccc2c(c1)CN(C)C(=O)CCN2CC(O)C(C)(C)C (stereo unspecified),2.422,-20.59
COc1cc2nc(C)n(CC(=O)NCCCO)c(=O)c2cc1OC,-6.353,-5.371
O=C(CCc1nc2cccnc2[nH]1)NCc1cccnc1,-4.264,11.7
Cc1ccc(N2CCCC3(COCCN(c4ncccn4)C3)C2)nn1.O=C(O)C(F)(F)F (stereo unspecified),-10,9.972
O=C(O)C(F)(F)F.c1cnc(N2CCC3(COCc4cnc(-c5cccnc5)nc43)C2)nc1 (stereo unspecified),-7.901,-16.13
Cc1csc2c(N3CCNC(C(=O)NCc4cccnc4)C3)ncnc12 (stereo unspecified),-23.47,1.017
CCc1cc(N2CCN(c3cnccn3)CC2)n2nc(C)c(C)c2n1,9.64,3.137 and -6.58
O=C(Cc1csc(-c2nnc[nH]2)n1)N1CCCC1Cn1cccn1 (stereo unspecified),3.608,23.9
O=C(O)c1ccc2c(c1)C1(CCCCC1)CN2C(=O)c1cccc(F)c1,1.798 and -28.83,-0.8403
c1cnc(N2CCCC3(CCN(Cc4cccs4)C3)C2)nc1 (stereo unspecified),-14.01,9.533 and -4.488
N#Cc1cccnc1N1CCN(C(=O)CCC(=O)c2cccs2)CC1,-7.795,-21.67
O=C(NCC1CC1)C1CCC2(CCN(C(=O)c3cccs3)CC2)O1 (stereo unspecified),-8.744,14.63 and 4.94
COc1c(C2CCCN2C(=O)c2ccc3[nH]cnc3c2)c(C)nn1C (stereo unspecified),-3.82,-1.052
Cn1cc(CN(C(=O)c2ccc3ncsc3c2)C2CC2)cn1,-43.67,-18.34
Cn1ccc(NC(=O)Cc2ccccc2F)n1,-9.882 and -20.4,-8.084
CCc1c(C)n(CC(=O)OC)c2nc3ccccc3n2c1=O,-15.18 and -0.5609,-4.904
CC(C)=CCCN1CCN(C)C2(CCC(=O)N(C)CC2)C1 (stereo unspecified),16.69,3.592
Cc1cc(C)n(CC2CCCCN2CCc2ccncc2)n1 (stereo unspecified),-12.56,2.133
Cc1nnc2n1CCN(C(=O)c1cn(-c3ccccc3Cl)nn1)C2,-29.98,-22.13
COc1ccc2[nH]cc(C(=O)N3CC[C@H](CO)[C@@H](O)C3)c(=O)c2c1,-15.63,-14.94
CC(NC(=O)CCC(C)(C)C)C(=O)Nc1ccc(-n2cncn2)cc1 (stereo unspecified),15.41,-6.162
CC1CCCN(Cc2csc(-c3ncccn3)n2)CC1 (stereo unspecified),49.58,20.98
CCNC(=O)NC(C)c1nc(-c2ccc(Br)cc2)no1 (stereo unspecified),38.52,24.85
Cc1ccc(NC(=O)C2=CN=S=N2)cc1,12.74,-7.197
COc1ccccc1NC(=O)c1cc2c([nH]c1=O)CCCC2=O,-1.759 and 10.96,-1.892
Cc1ccc(C(=O)N(C)CCCc2cnn(C)c2)cc1N1CCNC1=O,-25.89,-0.8197
CNC(=O)CN1CCCC12CCN(C(=O)c1ccsc1)CC2.O=C(O)C(F)(F)F,4.504,7.629
COc1c(C2SCC(=O)Nc3[nH]ncc32)cc2c(c1OC)OCO2 (stereo unspecified),-7.294 and 3.018,-6.373
CC(=O)N1CCN(Cc2ccc(C(F)(F)F)c(F)c2)CC(O)C1 (stereo unspecified),-2.501 and 2.343,11.12
COc1cc2c(c(OC)c1OC)CCN(CCn1nc(C)cc1C)CC2,24.22,4.321
O=C(COCCc1ccccc1)N1CCCC(n2cncn2)C1 (stereo unspecified),-10.1,-6.833
Cc1ccccc1CC(C)(C)NC(=O)c1cccc(OCC(N)=O)c1,20.52 and 7.684,13.22
[H][C@@]12CS(=O)(=O)C[C@]1([H])N(S(=O)(=O)N1CCc3ccccc3C1)CCN2CC,21.82,4.877
CCc1cc(N[C@H]2CCC[C@H]2O)n2nccc2n1,-3.847,-21.62

Source: ChEMBL document CHEMBL3988442, “University of Dundee, Small-Polar-MMV Screening Library” (2021).